From paper PMC9998969
Results are given in words; binding and its absence hold for the method and conditions named. Binding seen in cells or lysates may run through a third protein. Some results given as binding are weak or reduced against the parent protein; the word gives no strength. For some assays here: Sequences can lack the tags named with a protein. Values belong to the molecule of their own block, whether it stands above or below them.

Amino acid sequences for entries named in this document (tags omitted).
UniProt Q14573: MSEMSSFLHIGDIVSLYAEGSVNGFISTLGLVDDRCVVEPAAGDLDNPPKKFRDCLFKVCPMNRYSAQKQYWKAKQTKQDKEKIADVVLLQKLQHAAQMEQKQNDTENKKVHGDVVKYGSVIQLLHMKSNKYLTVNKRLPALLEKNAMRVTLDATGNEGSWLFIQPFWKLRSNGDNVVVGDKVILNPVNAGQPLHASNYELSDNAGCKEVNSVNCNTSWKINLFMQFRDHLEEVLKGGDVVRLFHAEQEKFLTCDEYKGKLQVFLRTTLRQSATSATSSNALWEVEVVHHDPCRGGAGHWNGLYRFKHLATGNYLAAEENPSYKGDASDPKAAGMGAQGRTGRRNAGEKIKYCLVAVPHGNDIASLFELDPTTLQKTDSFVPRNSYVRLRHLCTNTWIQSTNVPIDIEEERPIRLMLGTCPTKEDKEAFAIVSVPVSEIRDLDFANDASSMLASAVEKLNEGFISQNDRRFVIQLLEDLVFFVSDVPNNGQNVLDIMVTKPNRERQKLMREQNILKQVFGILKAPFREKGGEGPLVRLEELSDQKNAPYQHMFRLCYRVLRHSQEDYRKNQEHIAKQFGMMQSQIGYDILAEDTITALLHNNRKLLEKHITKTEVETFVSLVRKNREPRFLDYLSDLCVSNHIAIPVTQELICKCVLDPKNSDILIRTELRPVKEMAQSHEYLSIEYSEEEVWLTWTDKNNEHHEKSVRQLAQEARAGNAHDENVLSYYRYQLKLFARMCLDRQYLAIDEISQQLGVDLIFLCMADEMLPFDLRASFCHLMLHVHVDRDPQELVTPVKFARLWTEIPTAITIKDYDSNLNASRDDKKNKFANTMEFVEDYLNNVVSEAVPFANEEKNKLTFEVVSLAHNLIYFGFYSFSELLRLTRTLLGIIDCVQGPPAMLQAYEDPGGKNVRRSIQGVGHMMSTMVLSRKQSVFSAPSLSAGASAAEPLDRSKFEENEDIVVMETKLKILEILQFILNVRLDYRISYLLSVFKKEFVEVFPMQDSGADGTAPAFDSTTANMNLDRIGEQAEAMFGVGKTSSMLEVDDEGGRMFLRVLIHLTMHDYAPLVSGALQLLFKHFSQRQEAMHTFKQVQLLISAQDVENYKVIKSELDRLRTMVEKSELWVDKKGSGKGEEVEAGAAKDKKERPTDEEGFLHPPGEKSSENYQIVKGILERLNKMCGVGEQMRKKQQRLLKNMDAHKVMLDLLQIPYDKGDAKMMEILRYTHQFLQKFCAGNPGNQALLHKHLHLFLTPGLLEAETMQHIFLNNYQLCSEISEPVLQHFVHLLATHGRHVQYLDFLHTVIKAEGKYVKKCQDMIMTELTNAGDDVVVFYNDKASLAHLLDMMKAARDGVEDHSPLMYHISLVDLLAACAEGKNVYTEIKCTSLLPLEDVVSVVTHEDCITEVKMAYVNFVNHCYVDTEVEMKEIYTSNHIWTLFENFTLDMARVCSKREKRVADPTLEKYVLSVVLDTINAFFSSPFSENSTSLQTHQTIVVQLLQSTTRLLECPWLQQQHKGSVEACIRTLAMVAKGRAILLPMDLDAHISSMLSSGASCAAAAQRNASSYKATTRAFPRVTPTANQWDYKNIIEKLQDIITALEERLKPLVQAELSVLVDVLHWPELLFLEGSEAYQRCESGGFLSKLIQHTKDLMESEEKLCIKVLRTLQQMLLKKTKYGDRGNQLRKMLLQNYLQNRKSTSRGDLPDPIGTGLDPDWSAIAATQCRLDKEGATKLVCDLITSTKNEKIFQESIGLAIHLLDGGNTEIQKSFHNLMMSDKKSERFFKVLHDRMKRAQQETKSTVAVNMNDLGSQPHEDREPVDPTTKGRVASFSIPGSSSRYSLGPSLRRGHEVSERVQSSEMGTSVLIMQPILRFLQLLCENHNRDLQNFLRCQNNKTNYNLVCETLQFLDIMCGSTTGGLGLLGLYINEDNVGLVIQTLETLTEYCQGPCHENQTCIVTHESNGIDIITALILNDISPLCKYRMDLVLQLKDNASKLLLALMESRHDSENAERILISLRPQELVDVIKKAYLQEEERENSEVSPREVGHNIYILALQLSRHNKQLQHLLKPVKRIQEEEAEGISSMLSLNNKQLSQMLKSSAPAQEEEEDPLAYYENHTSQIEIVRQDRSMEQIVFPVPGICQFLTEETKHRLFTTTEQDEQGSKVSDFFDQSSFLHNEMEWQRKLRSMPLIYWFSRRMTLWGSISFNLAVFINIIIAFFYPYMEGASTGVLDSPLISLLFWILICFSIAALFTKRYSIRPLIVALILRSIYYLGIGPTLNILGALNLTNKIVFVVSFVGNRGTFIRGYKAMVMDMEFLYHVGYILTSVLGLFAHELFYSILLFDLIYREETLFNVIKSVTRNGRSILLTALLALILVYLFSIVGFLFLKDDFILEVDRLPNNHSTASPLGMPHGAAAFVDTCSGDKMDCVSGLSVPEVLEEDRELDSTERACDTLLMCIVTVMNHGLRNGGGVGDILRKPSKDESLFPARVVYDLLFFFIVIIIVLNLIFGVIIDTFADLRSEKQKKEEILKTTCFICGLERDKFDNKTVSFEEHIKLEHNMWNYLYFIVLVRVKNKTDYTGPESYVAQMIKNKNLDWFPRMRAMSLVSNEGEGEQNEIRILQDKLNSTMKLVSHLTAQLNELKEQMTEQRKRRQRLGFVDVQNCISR
UniProt P21796: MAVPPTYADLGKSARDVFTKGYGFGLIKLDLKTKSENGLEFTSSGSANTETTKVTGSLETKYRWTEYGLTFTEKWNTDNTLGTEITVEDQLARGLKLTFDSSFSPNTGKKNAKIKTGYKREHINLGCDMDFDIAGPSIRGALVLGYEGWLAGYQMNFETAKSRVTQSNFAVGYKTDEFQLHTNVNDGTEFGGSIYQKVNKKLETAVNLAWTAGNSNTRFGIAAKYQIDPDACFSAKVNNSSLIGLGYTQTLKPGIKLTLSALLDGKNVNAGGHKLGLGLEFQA

How the values were obtained:
[1] = target: IP3R3 (human (endogenous in HeLa)) (UniProt Q14573); experiment: proximity ligation; in situ PLA (Duolink) in fixed, permeabilised shCTR, shPERK and shE-Syt1 HeLa cells with rabbit anti-VDAC1 and mouse anti-IP3R3; dots per nucleus
[2] = target: T1, eGFP-tagged full length E-Syt1 (Extended-Synaptotagmin 1) (UniProt Q9BSJ8); experiment: co-IP; GFP pull-down with conjugated GFP antibody beads from total lysates of transfected HEK293-T cells; lysis in 1% CHAPS, 100 mM KCl, 50 mM Tris HCl, 150 mM NaCl; 500 ug protein, overnight at 4°C; blot for myc, PERK, GFP, CNX
T1 sequence: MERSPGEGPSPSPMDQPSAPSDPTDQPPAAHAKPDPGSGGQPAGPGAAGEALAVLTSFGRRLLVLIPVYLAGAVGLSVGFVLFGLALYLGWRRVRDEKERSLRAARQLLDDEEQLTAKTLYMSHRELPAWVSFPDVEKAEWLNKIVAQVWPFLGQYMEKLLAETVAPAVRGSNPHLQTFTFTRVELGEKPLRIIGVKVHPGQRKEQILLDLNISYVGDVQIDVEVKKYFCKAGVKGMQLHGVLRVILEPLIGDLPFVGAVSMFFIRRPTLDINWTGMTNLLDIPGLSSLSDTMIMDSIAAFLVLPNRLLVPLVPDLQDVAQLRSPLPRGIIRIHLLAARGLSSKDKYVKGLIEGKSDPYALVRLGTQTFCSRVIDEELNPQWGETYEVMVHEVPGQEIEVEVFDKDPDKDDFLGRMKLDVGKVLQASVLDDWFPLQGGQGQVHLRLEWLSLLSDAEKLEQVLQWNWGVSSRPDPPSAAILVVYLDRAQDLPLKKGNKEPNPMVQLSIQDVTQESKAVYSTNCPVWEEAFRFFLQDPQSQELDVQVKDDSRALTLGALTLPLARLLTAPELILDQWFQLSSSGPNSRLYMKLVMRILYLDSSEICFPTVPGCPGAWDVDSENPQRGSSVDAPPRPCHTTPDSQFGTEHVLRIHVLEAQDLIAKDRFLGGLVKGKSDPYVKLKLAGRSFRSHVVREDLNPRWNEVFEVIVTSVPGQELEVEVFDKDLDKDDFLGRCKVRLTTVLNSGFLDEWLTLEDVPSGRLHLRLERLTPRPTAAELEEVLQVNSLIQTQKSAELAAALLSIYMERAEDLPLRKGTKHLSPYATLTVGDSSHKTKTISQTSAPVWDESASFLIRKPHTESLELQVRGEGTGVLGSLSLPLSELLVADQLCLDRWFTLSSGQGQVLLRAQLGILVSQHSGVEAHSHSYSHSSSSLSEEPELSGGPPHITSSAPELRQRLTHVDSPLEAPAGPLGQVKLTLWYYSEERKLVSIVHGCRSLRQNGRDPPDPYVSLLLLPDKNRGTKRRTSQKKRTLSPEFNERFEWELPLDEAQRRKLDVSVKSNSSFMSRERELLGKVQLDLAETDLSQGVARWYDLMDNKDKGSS

binding [1]: binds
Molecule: VDAC1 (from UniProt P21796 1-283)

binding [2]: no binding
B1: calnexin (CNX) (protein, UniProt P27824 21-592)
chain: HDGHDDDVIDIEDDLDDVIEEVEDSKPDTTAPPSSPKVTYKAPVPTGEVYFADSFDRGTLSGWILSKAKKDDTDDEIAKYDGKWEVEEMKESKLPGDKGLVLMSRAKHHAISAKLNKPFLFDTKPLIVQYEVNFQNGIECGGAYVKLLSKTPELNLDQFHDKTPYTIMFGPDKCGEDYKLHFIFRHKNPKTGIYEEKHAKRPDADLKTYFTDKKTHLYTLILNPDNSFEILVDQSVVNSGNLLNDMTPPVNPSREIEDPEDRKPEDWDERPKIPDPEAVKPDDWDEDAPAKIPDEEATKPEGWLDDEPEYVPDPDAEKPEDWDEDMDGEWEAPQIANPRCESAPGCGVWQRPVIDNPNYKGKWKPPMIDNPSYQGIWKPRKIPNPDFFEDLEPFRMTPFSAIGLELWSMTSDIFFDNFIICADRRIVDDWANDGWGLKKAADGAAEPGVVGQMIEAAEERPWLWVVYILTVALPVFLVILFCCSGKKQTSGMEYKKTDAPQPDVKEEEEEKEEEKDKGDEEEEGEEKLEEKQKSDAEEDGGTVSQEEEDRKPKAEEDEILNRSPRNRKPRRE
